# Measured values taken from article PMC7819943, “Rice protein-binding microarrays: a tool to detect cis-acting elements near promoter regions in rice”.
# Some of the results follow.
# Molecular target: T1, OsSMF1 (Oryza sativa, UniProt Q6ZLB0 1-436)
# T1 sequence: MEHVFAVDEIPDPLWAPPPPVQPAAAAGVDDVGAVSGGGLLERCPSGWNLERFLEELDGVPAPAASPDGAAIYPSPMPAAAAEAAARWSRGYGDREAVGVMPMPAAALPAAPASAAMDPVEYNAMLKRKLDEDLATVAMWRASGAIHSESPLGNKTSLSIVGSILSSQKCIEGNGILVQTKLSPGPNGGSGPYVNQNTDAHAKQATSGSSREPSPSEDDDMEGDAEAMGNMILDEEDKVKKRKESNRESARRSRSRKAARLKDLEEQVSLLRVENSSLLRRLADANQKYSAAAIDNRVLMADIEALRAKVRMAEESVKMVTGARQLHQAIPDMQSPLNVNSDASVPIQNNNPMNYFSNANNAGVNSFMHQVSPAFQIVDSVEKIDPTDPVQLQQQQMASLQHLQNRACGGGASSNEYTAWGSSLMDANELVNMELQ
# Experiment: protein-binding microarray (RPBM); PBS, 2% BSA, 51.3 ng/ul salmon testes DNA, 50 uM zinc acetate, 200 nM TF, 25 C, 1 h; high values mean tight binding
# Settings: protein: recombinant; tags: N-terminal polyhistidine and DsRed monomer fusion (pET32a); chain copies: 2; label: CyDye5-dUTP incorporated in the synthesized complementary strand; 3' TTTTT single-stranded linker to array surface; dsDNA, one strand shown
# Outline: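 The binding signal is fluorescence intensity per feature, in arbitrary units, read on an Axon 4000B scanner. Polyhistidine- and DsRed-tagged transcription factors (N-terminal fusions) from E. coli BL21-CodonPlus were purified on Ni–NTA and applied at 200 nM for 1 h at 25 °C to a double-stranded, BSA-blocked custom Agilent array in buffer with 50 µM zinc acetate.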
row,Sequence,binding signal
1,TTATGTGTGCGTGGGCCATTAATTTACACTTGCATGTCAGCGGAGTCACCTAGTGCAG,4810 fluorescence intensity (a.u.)
2,CGGGACCGGGACCCACCCAGACGTGGACGCGCTCACTGGACGGAGTCACCTAGTGCAG,3850 fluorescence intensity (a.u.)
3,AGTAGAATTCCTCTGATGCAACTCGCCAGAAATGATCTCACGGAGTCACCTAGTGCAG,3820 fluorescence intensity (a.u.)
4,CGGACACGTTGAGGCCTCCACGTGGGCCATGTTTGACGGGCGGAGTCACCTAGTGCAG,10700 fluorescence intensity (a.u.)
5,ACCACGTGTTCGCGTCACGGACCTACTCTGCCGTCACCGACGGAGTCACCTAGTGCAG,5130 fluorescence intensity (a.u.)
6,TACTTGTGCTTTGACATGTATCCGACGTGGCTCATGAACCCGGAGTCACCTAGTGCAG,11800 fluorescence intensity (a.u.)
7,CACGTCCTCACCAACCAACCATGCAAGCCCGCTCGACCCCCGGAGTCACCTAGTGCAG,3220 fluorescence intensity (a.u.)
8,ATAAGGATAATGACGAATCCGTGATGAATCCTGAGACGTACGGAGTCACCTAGTGCAG,4410 fluorescence intensity (a.u.)
9,TCTGATGGGCGCTGGCTATCAATGTATGTCACTGTGTTGTCGGAGTCACCTAGTGCAG,4300 fluorescence intensity (a.u.)
10,AGGACCACGTATTACCCGTACAAATTAGCAACCGCGCGCGCGGAGTCACCTAGTGCAG,6640 fluorescence intensity (a.u.)
11,ACCCAAGGATCCCCACGTCATTACCGTAGCAGCACTTTAGCGGAGTCACCTAGTGCAG,9640 fluorescence intensity (a.u.)
12,GTACTCCATGTAGATGTACATAGTGCTCCATGTAGATGTACGGAGTCACCTAGTGCAG,3190 fluorescence intensity (a.u.)
13,TGTTTTCCAAGTAGGTAAAGATATAGATTTACGTTGGATTCGGAGTCACCTAGTGCAG,3350 fluorescence intensity (a.u.)
14,AATAGAGGCCTCGGACTTCAGGCCTACAACGTGGCCTGTCCGGAGTCACCTAGTGCAG,3750 fluorescence intensity (a.u.)
15,CTAATCAACCCCTCCCCTAACCTTACCACCACCCAAAGCCCGGAGTCACCTAGTGCAG,3600 fluorescence intensity (a.u.)
16,TCATACATTAAAATACGGAGGGAGTATATGTATACTTGCACGGAGTCACCTAGTGCAG,3450 fluorescence intensity (a.u.)
17,TCGACGACGAGGCGTGGCGTGGCGGTGGACTTCCCGTCACCGGAGTCACCTAGTGCAG,3240 fluorescence intensity (a.u.)
18,TGGGCTAAACGCATCAATCACACACGCAACGTGGACGGGCCGGAGTCACCTAGTGCAG,4440 fluorescence intensity (a.u.)
19,AAGAATTGCCACGCATTTCTACCCTCGATATTCCTCCAACCGGAGTCACCTAGTGCAG,6410 fluorescence intensity (a.u.)
20,GCTTTACGTCTTGTGTGGAAGAAAGCGGAAAACTATCCAGCGGAGTCACCTAGTGCAG,3540 fluorescence intensity (a.u.)
21,AATCTCTTTCAAATAGGAAAATATGCTGACTTGGATATCTCGGAGTCACCTAGTGCAG,5890 fluorescence intensity (a.u.)
22,GACCGTCGCGTCCATCTGCACTGCCACCTGCACGGCAGCCCGGAGTCACCTAGTGCAG,3390 fluorescence intensity (a.u.)
23,GGCACTGATCTCACTGAGCTGCGTGTGCTACGTATGCAGCCGGAGTCACCTAGTGCAG,4370 fluorescence intensity (a.u.)
24,GTCTTAAATGTGGGCCCCACGTGCTGACTCAGCCGATTGTCGGAGTCACCTAGTGCAG,12900 fluorescence intensity (a.u.)
25,TGAAAGCACGCGACCTCACGCGCCGCTAACAAAAGCCCAACGGAGTCACCTAGTGCAG,19200 fluorescence intensity (a.u.)
26,GTCTTGTAGTTTCTGTGAGTGAGGTGGAGGCCCTGTATGACGGAGTCACCTAGTGCAG,5300 fluorescence intensity (a.u.)
27,CGCCACCGGCACAACCAGGCTGTCACCGGACGCGACCTCACGGAGTCACCTAGTGCAG,3330 fluorescence intensity (a.u.)

row,Sequence,binding signal
1,GTGCGTTTGTGTTCCTGTTGGGGATTGGCCAGTGAAATTACGGAGTCACCTAGTGCAG,13800 fluorescence intensity (a.u.)
2,CCAGCATCTGACACATCCTTTCCTAGCTGATCGACTCCATCGGAGTCACCTAGTGCAG,3420 fluorescence intensity (a.u.)
3,CTTGGATTTGAATATCATTTGGGTCAAATAGGACGGTAAACGGAGTCACCTAGTGCAG,5210 fluorescence intensity (a.u.)
4,GGATGGCCTCCGCGGCTCGCGTCACCCCACCCCGAGCTATCGGAGTCACCTAGTGCAG,3430 fluorescence intensity (a.u.)
5,GCGCTTGTGACGCGCGCGTTTGGTGCTGTGGACTGTATGTCGGAGTCACCTAGTGCAG,4080 fluorescence intensity (a.u.)
6,GGGCGTAATCGTCACCGCAGTCTTGTCGTCTCCCATGATGCGGAGTCACCTAGTGCAG,3600 fluorescence intensity (a.u.)
7,CGTGTCTGCTCGACGCCTCAGCTTCCTCCGCTCATCGCCACGGAGTCACCTAGTGCAG,4290 fluorescence intensity (a.u.)
8,GCTAAGCTAAACTCAACGAAGACGTGACGAATGTCAAATGCGGAGTCACCTAGTGCAG,4130 fluorescence intensity (a.u.)
9,CCCCGTTTCTTCTCTTCTTCCATCTTCGTCATCTTCCTCCCGGAGTCACCTAGTGCAG,4140 fluorescence intensity (a.u.)
10,ATGCCACCACATGGCGTCGTCGTCATATAATGGGTAATCGCGGAGTCACCTAGTGCAG,4180 fluorescence intensity (a.u.)
11,GTCGTCGTCGTCGTCACCGGGTCTTCGTCGAGACCCTGACCGGAGTCACCTAGTGCAG,3880 fluorescence intensity (a.u.)
12,ATCCACATTGGCAGGCTCTAACCAGGAGATGCCACATCAGCGGAGTCACCTAGTGCAG,9610 fluorescence intensity (a.u.)
13,AGTACGCTTTCTTACGTCACTGCTTACACGCCCGTGCGCGCGGAGTCACCTAGTGCAG,8770 fluorescence intensity (a.u.)
14,AGCACCAAAAGATGTCTGTTGGTATGGTTGACATGGCCAGCGGAGTCACCTAGTGCAG,5030 fluorescence intensity (a.u.)
15,TCTTCGCCACCGTCTGCATCGCGCCACCGCCGCCCTGCAGCGGAGTCACCTAGTGCAG,6650 fluorescence intensity (a.u.)
16,CCGAGCGAGCCGTGCCCGCTATAAGTTGGCCGCTGCGCTGCGGAGTCACCTAGTGCAG,11300 fluorescence intensity (a.u.)
17,GGAAACCACTACACATTACTCCAGATTACCGATTCAACAGCGGAGTCACCTAGTGCAG,3200 fluorescence intensity (a.u.)
18,GCTTCCATCCTTCCAACGAATCCACGCCGTCCATTCGCCACGGAGTCACCTAGTGCAG,3400 fluorescence intensity (a.u.)
19,CTTCTTCTTCTTCGCGGTGGCTGATCGATCAAAGTGAATTCGGAGTCACCTAGTGCAG,3660 fluorescence intensity (a.u.)
20,CGCCCCTTGCCGCTTGCCGCCTCGCCCGCTCGAGCTCATCCGGAGTCACCTAGTGCAG,3170 fluorescence intensity (a.u.)
21,ACTACAGTACTCCTCTCCCACTTGACCACCTCAGCTTCCTCGGAGTCACCTAGTGCAG,4790 fluorescence intensity (a.u.)
22,AAAGTGGTGTTTTAAAGGTGGCAAAACACGTAGATGGTCGCGGAGTCACCTAGTGCAG,3410 fluorescence intensity (a.u.)
23,TGCGTGCCGTGTTGCCGCGGTGGCGCGCTCCTGGAAGGCGCGGAGTCACCTAGTGCAG,5020 fluorescence intensity (a.u.)
24,GCTCGCGAAAACCAGAATCGTAGTAGTAGGAGCAACGTGTCGGAGTCACCTAGTGCAG,3380 fluorescence intensity (a.u.)
25,CACACAAGGCCTGACCAGGCCTGGCCGTCATCTTCTTCTTCGGAGTCACCTAGTGCAG,3480 fluorescence intensity (a.u.)
26,TTTTGTGCCTGCCTGAACACTCACTGAAAGACACGCTTCCCGGAGTCACCTAGTGCAG,4420 fluorescence intensity (a.u.)
27,GTACAAGATTTTAATAAGTAAACTAGCTTGAGTGATGAGACGGAGTCACCTAGTGCAG,20200 fluorescence intensity (a.u.)
